Some of the results follow. Values are raw readings; no control value is given beside them.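 Primary screen: polymyxin B was added at a level permeabilizing Salmonella outer membranes while sparing inner membranes. DMSO wells, both with and without polymyxin B, established maximum growth. Plate-to-plate variation meant each plate was ranked on its own, and the lowest-OD600 compounds were selected as hits.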
Test system: Salmonella enterica serovar Typhimurium SL1344
Assay: bacterial growth OD600 after 18 h with compound and polymyxin B; higher = more bacterial growth (less inhibition)
Details: 50 µM, Mueller-Hinton broth

SMILES | bacterial growth OD600 (polymyxin B 0.75 µg/mL) | bacterial growth OD600 (polymyxin B 1 µg/mL)
CCN(CC1CCCN(CCc2cccc(F)c2)C1)C(=O)CCN1CCOCC1 (configuration not stated) | 0.8 | –
Cc1noc(C)c1C(=O)N1CCCC(N2CCN(Cc3ccc4c(c3)OCO4)CC2)C1 (configuration not stated) | – | 0.944
CCn1ccnc1CN(C)C(=O)c1coc(COc2ccccc2)n1 | 0.824 | –
COc1cc(C(=O)NCc2ccc(Cl)cc2)ccc1OC1CCN(C(C)=O)CC1 | – | 0.934
COCCn1c(-c2ccccn2)nc2cc(NC(C)=O)cc(C(=O)N(C)Cc3ccc(F)cc3)c21 | 0.95 | –
CC(=O)N1CCC(C(=O)N2CCCC(CCc3c(F)cccc3F)C2)CC1 (configuration not stated) | 0.005 | –
COc1ccc(-c2nn(-c3ccccc3)cc2CN(C)C2CCOCC2)c(F)c1 | – | 0.68
COc1ccc2c(c1)OC(C)CN(CCC(=O)NCc1cc(F)ccc1C)C2 (configuration not stated) | 0.815 | –
O=C1CCCN1CCCC(=O)N1CCCC(CCc2cccc(F)c2)C1 (configuration not stated) | 0.932 | –
CC(C)CNC(=O)c1cn(C(C)C)cc(C(=O)N2CCN(c3cccc(C(F)(F)F)c3)CC2)c1=O | 0.768 | –
CCCCNC(=O)C1CCCN(C2CCN(C(=O)C3CC3)CC2)C1 (configuration not stated) | 0.802 | –
O=C(CSc1ccccc1)N1CCCC(Nc2ccc(F)cc2)C1 (configuration not stated) | – | 0.787
CCOc1ccc2nc(N3CCCC(C(=O)NCCOc4cccnc4)C3)nc(C)c2c1 (configuration not stated) | 0.005 | –
CN(Cc1c[nH]nc1-c1cc2ccccc2o1)CC1COc2ccccc2O1 (configuration not stated) | – | 0.014
O=C(Nc1ccnn1C1CCN(CC2CC=CCC2)CC1)c1ccc2c(c1)OCO2 (configuration not stated) | – | 0.93
COc1ccccc1-n1cc(CN2CCCC(CO)(Cc3ccccc3)C2)cn1 (configuration not stated) | – | 0.877

SMILES | bacterial growth OD600 (polymyxin B 0.75 µg/mL) | bacterial growth OD600 (polymyxin B 1 µg/mL)
Cc1ccc(CN(C)C(=O)c2cn(Cc3ccccc3F)nn2)cc1 | – | 0.573
COc1ccc(CC2(CCC(=O)N3CCN(c4ccc(Cl)cc4)CC3)CCC(=O)N2)c(F)c1 (configuration not stated) | 0.728 | –
COC(=O)C(CCSC)NC(=O)c1csc2nc(-c3ccccc3)cn12 (configuration not stated) | – | 0.788
COc1ccc(C(=O)C2CCCN(Cc3cccc4c3OCO4)C2)c(OC)c1 (configuration not stated) | – | 0.773
COCCN1C(=O)CC(CC(=O)N(C)Cc2ccc(-n3cccn3)cc2)(c2ccccc2OC)C1=O (configuration not stated) | 0.846 | –
CC(Cc1cnccn1)NC(=O)c1cc(Cn2ccc3ccccc32)[nH]n1 (configuration not stated) | 0.828 | –
O=C1N(Cc2cccc(F)c2F)CCCC1(O)CN1CCC2(CC1)OCCO2 (configuration not stated) | – | 0.902
Cc1nc(-c2ccncc2)ncc1C(C)NC(=O)c1ccccc1Cl (configuration not stated) | – | 0.904
CN(Cc1ccccc1C(F)(F)F)C(=O)CC1(c2ccccc2)CC(=O)N(Cc2cccnc2)C1=O (configuration not stated) | 0.401 | –
COc1ccc(F)c(CC2(CCC(=O)NCc3nc(-c4ccccc4)cs3)CCC(=O)N2)c1 (configuration not stated) | 0.74 | –
Cc1cccc(C(=O)N2CCCC(CNC(=O)c3ccc(F)cc3)C2)n1 (configuration not stated) | – | 0.954
CC(C)CNc1ccc(C(=O)N2CCC(CCn3cccn3)CC2)cn1 | 0.776 | –
Cc1nc2ccccc2n1Cc1cc(C(=O)N2CCCCC2CCO)no1 (configuration not stated) | 0.891 | –
Cc1oc(-c2cccc(NC(=O)C3CCCN(C)C3)c2)nc1CNC(=O)c1cccs1 (configuration not stated) | 0.833 | –
COc1ccc(C(C)N(C)C(=O)CC2(c3ccc(-c4ccccc4)cc3)CC(=O)N(C)C2=O)cc1 (configuration not stated) | 0.017 | –
Cc1ncc2c(c1CNC(=O)/C=C/c1cccs1)CCN(C(=O)/C=C/c1c(F)cccc1F)C2 | 0.005 | –

Random excerpt: 2 entries already listed, in no set order.
SMILES | bacterial growth OD600 (polymyxin B 0.75 µg/mL) | bacterial growth OD600 (polymyxin B 1 µg/mL)
Cc1nc(-c2ccncc2)ncc1C(C)NC(=O)c1ccccc1Cl (configuration not stated) | – | 0.904
CC(Cc1cnccn1)NC(=O)c1cc(Cn2ccc3ccccc32)[nH]n1 (configuration not stated) | 0.828 | –

Reference: the supplement of paper PMC12889115
